Measured values taken from patent US20120165265A1, “Calcium Signaling Modulators Involving STIM and ORAI Proteins” (priority 2009, published 2012).
These are yes or no findings as the source states them, for the method shown. Some binding calls cover weakened binding; strength is not graded here.

Protein sequences, listed by entry. Tags and fused reporters are not part of them.
UniProt P40350: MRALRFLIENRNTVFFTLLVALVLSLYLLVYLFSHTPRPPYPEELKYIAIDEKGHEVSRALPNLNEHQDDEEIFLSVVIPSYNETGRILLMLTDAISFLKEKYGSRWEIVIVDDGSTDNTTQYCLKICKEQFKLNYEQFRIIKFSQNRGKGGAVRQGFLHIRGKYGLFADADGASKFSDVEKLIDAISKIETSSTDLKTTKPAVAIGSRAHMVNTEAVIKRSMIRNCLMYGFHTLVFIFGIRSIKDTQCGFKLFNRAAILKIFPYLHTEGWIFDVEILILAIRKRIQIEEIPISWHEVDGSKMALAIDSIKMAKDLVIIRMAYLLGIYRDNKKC

Target: Alg5 (UniProt P40350)
Test: yeast split ubiquitin assay (FIG. 3F)

In the case of Alg5 (from UniProt P40350 1-334), the binding is reported as “binds”.
